From patent publication US20220119529A1 come the findings set out here.

The chains are these.
B1: #27-21 (VH2-2-VL2-1) (antibody, V domains shown)
VH: QVQLVQSGAEVVKPGASVKVSCKASGYTFTNYWMHWVKQAPGQGLEWIGMIHPNSGAFNYNERFKTRVTITVDKSTSTAYMELSSLRSEDTAVYYCARSTALATGYWGQGTLLTVSS
VL: DIQLTQSPSFLSASVGDRVTITCSASSSVSYMYWYQQKPGKSPKLLIYDTSNLASGVPSRFSGSGSGTEYTLTISSLQPEDFATYYCQQWSSYPLTFGQGTKLEIK
B2: #23-5423 (VH5-4-VL2-3) (antibody, IgG1, V domains shown)
VH: QVQLVQSGAEVKKPGESLKISCKASGYNFNNYWMHWVRQRPGKGLEWIGMIHPNSGTFNYNERFKRKATLTVDKSISTAYLQWSSLKAEDTAMYYCAKSTALATDYWGQGTLVTVSS
VL: QIVLTQSPSTLSASVGDRVTITCSASSSVSYMYWYQQKPGKAPKLLIYDTSNLASGVPIRFSGSGSGTSYTLTISSLQPDDFATYYCQQWSSYPLTFGQGTKLEIK
B3: #23-5424 (VH5-4-VL2-4) (antibody, IgG1, V domains shown)
VH: QVQLVQSGAEVKKPGESLKISCKASGYNFNNYWMHWVRQRPGKGLEWIGMIHPNSGTFNYNERFKRKATLTVDKSISTAYLQWSSLKAEDTAMYYCAKSTALATDYWGQGTLVTVSS
VL: QIVLTQSPSTLSASVGDRVTMTCSASSSVSYMYWYQQKPGKAPKLLIYDTSNLASGVPIRFSGSGSGTSYTLTISSMQPDDFVTYYCQQWSSYPLTFGQGTKLEIK
B4: #27-22 (VH2-2-VL2-2) (antibody, IgG1, V domains shown)
VH: QVQLVQSGAEVVKPGASVKVSCKASGYTFTNYWMHWVKQAPGQGLEWIGMIHPNSGAFNYNERFKTRVTITVDKSTSTAYMELSSLRSEDTAVYYCARSTALATGYWGQGTLLTVSS
VL: DIQLTQSPSFLSASVGDRVTMTCSASSSVSYMYWYQQKPGKSPKLLIYDTSNLASGVPSRFSGSGSGTEYTLTISSLQPEDFVTYYCQQWSSYPLTFGQGTKLEIK
B5: #27-2121 (VH2-1-VL2-1) (antibody, IgG1, V domains shown)
VH: QVQLVQSGAEVVKPGASVKVSCKASGYTFTNYWMHWVRQAPGQGLEWMGMIHPNSGAFNYNERFKTRVTITVDKSTSTAYMELSSLRSEDTAVYYCARSTALATGYWGQGTLVTVSS
VL: DIQLTQSPSFLSASVGDRVTITCSASSSVSYMYWYQQKPGKSPKLLIYDTSNLASGVPSRFSGSGSGTEYTLTISSLQPEDFATYYCQQWSSYPLTFGQGTKLEIK

These are yes or no findings as the source states them, for the method shown. A result given as binding can be weak or reduced; the word gives no strength.

The target of the assay is Cynomolgus B7H3 (plate-coated protein, ELISA) (cynomolgus monkey). Nature of the assay: ELISA, antigen coated on plate.
As for B1, the binding entry is recorded as “binds”.

Take B2: the binding entry was “binds”.

For the molecule B3, the binding entry was “binds”.

For B4, the binding entry was “binds”.

For B5, the binding entry is “binds”.
